No constants are given. Whether binding was seen depends on the method and setting.
How the values were obtained:
[1] = molecular target: human α-catenin (residues 22–906) (human) (UniProt P35221); experiment: condition: only the separately pooled monomer peak of the size exclusion run; SEC-MALS; separately pooled monomer peak of a size exclusion run; Superdex S200 10/300 GL, 20 mM Tris-HCl pH 8, 150 mM NaCl, 0.2 mM TCEP, 0.5 ml/min; both purified
[2] = molecular target: full-length human α-catenin (residues 1–906) (human) (UniProt P35221); experiment: as above

binding [1] | binding [2] | Binder
no binding |  | human α-catenin (residues 22–906) (domain or fragment, UniProt P35221 22-906, looked up, Modified pET28 vector; By the printed forward primer the residues GPHM would remain before T22 after PreScission cleavage (surmise); The dimer was used for the complex with F-actin; in the map only residues 710–871 are ordered; also called Δ1–21 α-catenin; human dimeric α-catenin Δ1–21; source: E. coli BL21(DE3), purified (HisTrap, PreScission cleavage, reverse HisTrap, Superdex S200); not shown: …) TLAVERLLEPLVTQVTTLVNTNSKGPSNKKRGRSKKAHVLAASVEQATENFLEKGDKIAKESQFLKEELVAAVEDVRKQGDLMKAAAGEFADDPCSSVKRGNMVRAARALLSAVTRLLILADMADVYKLLVQLKVVEDGILKLRNAGNEQDLGIQYKALKPEVDKLNIMAAKRQQELKDVGHRDQMAAARGILQKNVPILYTASQACLQHPDVAAYKANRDLIYKQLQQAVTGISNAAQATASDDASQHQGGGGGELAYALNNFDKQIIVDPLSFSEERFRPSLEERLESIISGAALMADSSCTRDDRRERIVAECNAVRQALQDLLSEYMGNAGRKERSDALNSAIDKMTKKTRDLRRQLRKAVMDHVSDSFLETNVPLLVLIEAAKNGNEKEVKEYAQVFREHANKLIEVANLACSISNNEEGVKLVRMSASQLEALCPQVINAALALAAKPQSKLAQENMDLFKEQWEKQVRVLTDAVDDITSIDDFLAVSENHILEDVNKCVIALQEKDVDGLDRTAGAIRGRAARVIHVVTSEMDNYEPGVYTEKVLEATKLLSNTVMPRFTEQVEAAVEALSSDPAQPMDENEFIDASRLVYDGIRDIRKAVLMIRTPEELDDSDFETEDFDVRSRTSVQTEDDQLIAGQSARAIMAQLPQEQKAKIAEQVASFQEEKSKLDAEVSKWDDSGNDIIVLAKQMCMIMMEMTDFTRGKGPLKNTSDVISAAKKIAEAGSRMDKLGRTIADHCPDSACKQDLLAYLQRIALYCHQLNICSKVKAEVQNLGGELVVSGVDSAMSLIQAAKNLMNAVVQTVKASYVASTKYQKSQGMASLNLPAVSWKMKAPEKKPLVKREKQDETQTKIKRASQKKHVNPVQALSEFKAMDSI
 | no binding | full-length human α-catenin (residues 1–906) (natural protein, UniProt P35221 1-906, looked up, Cloned into pGEX-6P-1; residues of the PreScission site may remain at the N-terminus after cleavage; The same protein elutes as a monomer peak and a dimer peak, which were pooled separately; also called human monomeric α-catenin; human dimeric α-catenin; source: E. coli BL21(DE3), purified (GST Sepharose, PreScission cleavage, Superdex S200; monomer and dimer peaks pooled separately); not shown: …) MTAVHAGNINFKWDPKSLEIRTLAVERLLEPLVTQVTTLVNTNSKGPSNKKRGRSKKAHVLAASVEQATENFLEKGDKIAKESQFLKEELVAAVEDVRKQGDLMKAAAGEFADDPCSSVKRGNMVRAARALLSAVTRLLILADMADVYKLLVQLKVVEDGILKLRNAGNEQDLGIQYKALKPEVDKLNIMAAKRQQELKDVGHRDQMAAARGILQKNVPILYTASQACLQHPDVAAYKANRDLIYKQLQQAVTGISNAAQATASDDASQHQGGGGGELAYALNNFDKQIIVDPLSFSEERFRPSLEERLESIISGAALMADSSCTRDDRRERIVAECNAVRQALQDLLSEYMGNAGRKERSDALNSAIDKMTKKTRDLRRQLRKAVMDHVSDSFLETNVPLLVLIEAAKNGNEKEVKEYAQVFREHANKLIEVANLACSISNNEEGVKLVRMSASQLEALCPQVINAALALAAKPQSKLAQENMDLFKEQWEKQVRVLTDAVDDITSIDDFLAVSENHILEDVNKCVIALQEKDVDGLDRTAGAIRGRAARVIHVVTSEMDNYEPGVYTEKVLEATKLLSNTVMPRFTEQVEAAVEALSSDPAQPMDENEFIDASRLVYDGIRDIRKAVLMIRTPEELDDSDFETEDFDVRSRTSVQTEDDQLIAGQSARAIMAQLPQEQKAKIAEQVASFQEEKSKLDAEVSKWDDSGNDIIVLAKQMCMIMMEMTDFTRGKGPLKNTSDVISAAKKIAEAGSRMDKLGRTIADHCPDSACKQDLLAYLQRIALYCHQLNICSKVKAEVQNLGGELVVSGVDSAMSLIQAAKNLMNAVVQTVKASYVASTKYQKSQGMASLNLPAVSWKMKAPEKKPLVKREKQDETQTKIKRASQKKHVNPVQALSEFKAMDSI

Source: publication PMC10020564, “Distinct inter-domain interactions of dimeric versus monomeric α-catenin link cell junctions to filaments” (Communications Biology, 2023)
